The experiment has as its target T1, Pds1-GFP (S. cerevisiae) (UniProt P40316).
T1 sequence: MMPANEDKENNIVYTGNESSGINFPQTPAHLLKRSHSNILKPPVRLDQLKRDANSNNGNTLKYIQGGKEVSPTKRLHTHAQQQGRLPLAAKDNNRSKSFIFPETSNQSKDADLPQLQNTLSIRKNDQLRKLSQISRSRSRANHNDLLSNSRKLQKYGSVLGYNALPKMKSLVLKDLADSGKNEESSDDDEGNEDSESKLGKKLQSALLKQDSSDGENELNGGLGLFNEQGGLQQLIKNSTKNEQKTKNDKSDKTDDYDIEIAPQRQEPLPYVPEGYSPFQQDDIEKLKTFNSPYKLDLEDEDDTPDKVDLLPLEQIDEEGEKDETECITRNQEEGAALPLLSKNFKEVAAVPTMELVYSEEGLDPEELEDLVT
The experiment can be described thus: co-IP; GFP-Trap_A beads on 5mg yeast whole cell lysate, 4°C 1.5 h, washes with 400mM NaCl and 0.5% Triton; pGAL1-Ty1-H3 induced 24 h with galactose; blots with anti-GFP and anti-IN (8B11); logarithmic cells, also cells arrested with alpha-factor or nocodazole, and cells depleted of Pds1 (TetO7-PDS1, doxycycline 1 h) or Smc1 (TetO7-SMC1, doxycycline 6 h).

Results on one substance are retold here after article PMC4378997.

Results are given in words; binding and its absence hold for the method and conditions named. Binding seen in cells or lysates may run through a third protein. A result given as binding can be weak or reduced; the word gives no strength. Tags and fused reporters may be left off the sequences shown.

As for “Ty1 integrase expressed from pGAL1-Ty1-H3 (S. cerevisiae) (enzyme)”, the binding entry is recorded as “binds weakly”.
